Laboratory results published in paper PMC10218236.
The exact form of at least one protein or probe is not confirmed. At least one result comes from cells or an extract, where the contact may be indirect. For some of these results: No signal at the amounts used counts as a negative. For some of these results: Weaker means in comparison with the reference protein, sequence or condition of that experiment.

Sequences of proteins named here, by UniProt entry; tags and fusion partners are left off. Residues count along the entry.
UniProt P32004, 20-1257: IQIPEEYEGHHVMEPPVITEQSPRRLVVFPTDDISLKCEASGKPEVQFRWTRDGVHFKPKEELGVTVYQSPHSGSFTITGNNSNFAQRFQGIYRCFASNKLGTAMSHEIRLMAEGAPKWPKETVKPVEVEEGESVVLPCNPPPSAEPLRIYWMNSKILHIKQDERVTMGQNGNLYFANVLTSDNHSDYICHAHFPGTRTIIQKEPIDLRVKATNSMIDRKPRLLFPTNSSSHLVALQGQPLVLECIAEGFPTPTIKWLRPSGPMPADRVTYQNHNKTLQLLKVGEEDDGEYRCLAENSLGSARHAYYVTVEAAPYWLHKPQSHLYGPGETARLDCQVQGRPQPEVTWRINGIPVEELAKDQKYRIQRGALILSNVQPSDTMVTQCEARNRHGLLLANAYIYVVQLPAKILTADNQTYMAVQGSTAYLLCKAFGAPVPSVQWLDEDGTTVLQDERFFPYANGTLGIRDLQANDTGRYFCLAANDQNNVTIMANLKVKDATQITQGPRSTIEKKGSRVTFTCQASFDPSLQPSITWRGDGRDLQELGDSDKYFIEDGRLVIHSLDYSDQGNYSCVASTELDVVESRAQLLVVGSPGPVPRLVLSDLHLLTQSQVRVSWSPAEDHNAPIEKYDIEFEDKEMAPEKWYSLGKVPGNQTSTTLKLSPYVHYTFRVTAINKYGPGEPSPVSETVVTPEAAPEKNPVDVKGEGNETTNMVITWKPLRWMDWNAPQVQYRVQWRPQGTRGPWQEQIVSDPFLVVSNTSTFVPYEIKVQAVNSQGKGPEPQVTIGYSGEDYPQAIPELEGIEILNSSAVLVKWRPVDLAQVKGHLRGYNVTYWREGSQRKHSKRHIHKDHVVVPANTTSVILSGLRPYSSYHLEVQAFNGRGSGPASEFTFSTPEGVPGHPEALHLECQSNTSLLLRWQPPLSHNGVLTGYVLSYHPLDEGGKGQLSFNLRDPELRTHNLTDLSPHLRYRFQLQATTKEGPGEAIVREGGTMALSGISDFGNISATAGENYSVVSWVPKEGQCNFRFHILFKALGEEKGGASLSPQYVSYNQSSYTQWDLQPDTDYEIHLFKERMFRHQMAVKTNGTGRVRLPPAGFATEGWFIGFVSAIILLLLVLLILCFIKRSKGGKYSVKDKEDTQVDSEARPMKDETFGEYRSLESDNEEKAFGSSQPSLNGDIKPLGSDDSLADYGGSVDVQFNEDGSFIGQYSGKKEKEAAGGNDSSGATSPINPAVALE

How the values were obtained:
Test in all cases: flow cytometry
L1CAM-FL = L1CAM-FL (UniProt P32004); settings: transfected PC3; PBS, 4.5 g/L glucose, 5 mM MgCl2, 1 mg/mL BSA, 0.1 mg/mL herring sperm DNA; 30 min at 4 °C (or 25/37 °C); pH not stated; protein on the cell surface; label: FAM (3' FAM in DMS footprinting); single-stranded DNA
L1CAM-Ig = L1CAM-Ig (UniProt P32004); settings: transfected PC3; PBS, 4.5 g/L glucose, 5 mM MgCl2, 1 mg/mL BSA, 0.1 mg/mL herring sperm DNA; 30 min at 4 °C (or 25/37 °C); pH not stated; protein on the cell surface; label: FAM (3' FAM in DMS footprinting); single-stranded DNA
L1CAM-Ig1-5 = L1CAM-Ig1-5 (UniProt P32004); settings: transfected PC3; PBS, 4.5 g/L glucose, 5 mM MgCl2, 1 mg/mL BSA, 0.1 mg/mL herring sperm DNA; 30 min at 4 °C (or 25/37 °C); pH not stated; protein on the cell surface; label: FAM (3' FAM in DMS footprinting); single-stranded DNA
L1CAM-KGE = L1CAM-KGE (UniProt P32004); settings: transfected PC3; PBS, 4.5 g/L glucose, 5 mM MgCl2, 1 mg/mL BSA, 0.1 mg/mL herring sperm DNA; 30 min at 4 °C (or 25/37 °C); pH not stated; protein on the cell surface; label: FAM (3' FAM in DMS footprinting); single-stranded DNA
L1CAM-Ig6 = L1CAM-Ig6 (UniProt P32004); settings: transfected PC3; PBS, 4.5 g/L glucose, 5 mM MgCl2, 1 mg/mL BSA, 0.1 mg/mL herring sperm DNA; 30 min at 4 °C (or 25/37 °C); pH not stated; protein on the cell surface; label: FAM (3' FAM in DMS footprinting); single-stranded DNA
L1CAM-FNIII = L1CAM-FNIII (UniProt P32004); settings: transfected PC3; PBS, 4.5 g/L glucose, 5 mM MgCl2, 1 mg/mL BSA, 0.1 mg/mL herring sperm DNA; 30 min at 4 °C (or 25/37 °C); pH not stated; protein on the cell surface; label: FAM (3' FAM in DMS footprinting); single-stranded DNA
[1] = molecular target: L1CAM on L1CAM-high cells (LoVo) (Homo sapiens?) (UniProt P32004); settings: PBS, 4.5 g/L glucose, 5 mM MgCl2, 1 mg/mL BSA, 0.1 mg/mL herring sperm DNA, 30 min at 4 °C (or 25/37 °C), pH not stated, protein on the cell surface, label: FAM, single-stranded DNA

**Q.** Which results are given for “CAGATAGGGGGTAGCTCGGTCGTGTTTTTGGGTTGTTTGGTGGGTCTTCTG [yly20]”?
**A.** binding result (L1CAM-FL): binds; binding result (L1CAM-Ig): binds; binding result (L1CAM-Ig1-5): no binding; binding result (L1CAM-KGE): binds; binding result (L1CAM-Ig6): binds; binding result (L1CAM-FNIII): no binding

**Q.** Does “CAGATAGGGAGTAGCTCGGTCGTGTTTTTGGGTTGTTTGGTGGGTCTTCTG [yly20-G10A]” bind ([1]; 200 nM, almost lost)?
**A.** Result: binds more weakly

**Q.** Does “CAGATAGGGGGTAGCTCGGTCGTGTTTTTGGGTTGTTTGATGGGTCTTCTG [yly20-G40A]” bind ([1]; 200 nM, almost lost)?
**A.** Result: binds more weakly

**Q.** Does “CAGATAGGAGGTAGCTCGGTCGTGTTTTTGGGTTGTTTGGTGGGTCTTCTG [yly20-G9A]” bind ([1]; 200 nM, almost lost)?
**A.** Result: binds more weakly

**Q.** Does “CAGATAGGGGGTAGCTCGGTCGTGTTTTTGGGTTGTTTGGTGAGTCTTCTG [yly20-G43A]” bind ([1]; 200 nM)?
**A.** Result: binds more weakly

**Q.** Does “CAGATAAGGGGTAGCTCGGTCGTGTTTTTGGGTTGTTTGGTGGGTCTTCTG [yly20-G7A]” bind ([1]; 200 nM aptamer)?
**A.** Result: binds more weakly

**Q.** Does “CAGATAGGGGGTAACTCAGTCGTGTTTTTGGGTTGTTTGGTGGGTCTTCTG [yly20-G1418A]” bind ([1]; 200 nM, almost lost)?
**A.** Result: binds more weakly

**Q.** Does “CAGATAGGGGGTAACTCGGTCGTGTTTTTGGGTTGTTTGGTGGGTCTTCTG [yly20-G14A]” bind ([1]; 200 nM, almost lost)?
**A.** Result: binds more weakly

**Q.** Does “CAGATAGGGGATAGCTCGGTCGTGTTTTTGGGTTGTTTGGTGGGTCTTCTG [yly20-G11A]” bind ([1]; 200 nM, almost lost)?
**A.** Result: binds more weakly

**Q.** Does “CAGATAGGGGGTAGCTCGGTCGTGTTTTTGAGTTGTTTGGTGGGTCTTCTG [yly20-G31A]” bind ([1]; 200 nM)?
**A.** Result: binds more weakly

**Q.** Does “CAGATAGGGGGTAGCTCAGTCGTGTTTTTGGGTTGTTTGGTGGGTCTTCTG [yly20-G18A]” bind ([1]; 200 nM, almost lost)?
**A.** Result: binds more weakly

**Q.** Does “CAGATAGGGGGTAGATAGGTCGTGTTTTTGGGTTGTTTGGTGGGTCTTCTG [yly20-C1517A]” bind ([1]; 200 nM, significantly lost)?
**A.** Result: binds more weakly

**Q.** Does “CAGATAGGGGGTAGATCGGTCGTGTTTTTGGGTTGTTTGGTGGGTCTTCTG [yly20-C15A]” bind ([1]; 200 nM, significantly lost)?
**A.** Result: binds more weakly

**Q.** Does “CAGATAGGGGGTAGCCCGGTCGTGTTTTCGGGCTGTTTGGTGGGTCTTCTG [yly20-T162933C]” bind ([1]; 200 nM, almost totally lost)?
**A.** Result: binds more weakly
